Measurements reported in PubChem BioAssay AID1224830 (NIAID, 2016).
The deposit covers about 18,000 reagents; below is a random part of them. About 2,900 of all reagents (16%) count as active. 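Calls are made per well; low scores hint the gene aids the LPS response, high scores that it dampens it.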 Unmarked entries are inactive. Repeated entries: four replicate wells of each siRNA pool. Reagent sequences are not shown.

Assay: 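Regulators of TLR4 signalling towards TNF-alpha in macrophage-like cells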 (primary screen)
Cell system: human THP-1 monocytic leukaemia cells, TNF dual-luciferase reporter clone, PMA-differentiated to macrophage-like cells
Knock-down reagent: siRNA pool against human genes, 50 nM
Duration: LPS for 4 h, given about 3 days after siRNA transfection
Treatment: bacterial LPS (TLR4 ligand), 10 ng/ml
Measurement: 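Ratio of firefly to renilla light, scaled to the plate median and expressed as a robust z-score per replicate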
Direction: TNF reporter robust z-score: higher = stronger TNF reporter response to LPS
Active means: 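a well is active when its z-score exceeds 2.8 or falls below -1.5; control wells carry no call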

{"gene": "NR1D1", "TNF reporter robust z-score": -0.88}
{"gene": "NR1D1", "TNF reporter robust z-score": -0.6}
{"gene": "NR1D1", "TNF reporter robust z-score": -0.83}
{"gene": "NR1D1", "TNF reporter robust z-score": -0.23}
{"gene": "SORCS3", "TNF reporter robust z-score": 0.34}
{"gene": "SORCS3", "TNF reporter robust z-score": -0.87}
{"gene": "SORCS3", "TNF reporter robust z-score": 0.8}
{"gene": "SORCS3", "TNF reporter robust z-score": -0.66}
{"gene": "DCUN1D1", "TNF reporter robust z-score": -0.95}
{"gene": "DCUN1D1", "TNF reporter robust z-score": 0.46}
{"gene": "DCUN1D1", "TNF reporter robust z-score": -0.4}
{"gene": "DCUN1D1", "TNF reporter robust z-score": -0.52}
{"gene": "CPA6", "TNF reporter robust z-score": 1.11}
{"gene": "CPA6", "TNF reporter robust z-score": -1.39}
{"gene": "CPA6", "TNF reporter robust z-score": -0.5}
{"gene": "ARL16", "TNF reporter robust z-score": 0.1}
{"gene": "ARL16", "TNF reporter robust z-score": -0.29}
{"gene": "ARL16", "TNF reporter robust z-score": 0.15}
{"gene": "ARL16", "TNF reporter robust z-score": -0.28}
{"gene": "IP6K3", "TNF reporter robust z-score": 1.33}
{"gene": "IP6K3", "TNF reporter robust z-score": 1.31}
{"gene": "IP6K3", "TNF reporter robust z-score": 1.23}

Continued:
{"gene": "WDR5", "TNF reporter robust z-score": "-1.55 (active)"}
{"gene": "WDR5", "TNF reporter robust z-score": -1.26}
{"gene": "WDR5", "TNF reporter robust z-score": -1.41}
{"gene": "WDR5", "TNF reporter robust z-score": -1.32}
{"gene": "EXOSC6", "TNF reporter robust z-score": 1.16}
{"gene": "EXOSC6", "TNF reporter robust z-score": -0.3}
{"gene": "EXOSC6", "TNF reporter robust z-score": -0.23}
{"gene": "EXOSC6", "TNF reporter robust z-score": 0.25}
{"gene": "AS3MT", "TNF reporter robust z-score": -1.16}
{"gene": "AS3MT", "TNF reporter robust z-score": 0.04}
{"gene": "AS3MT", "TNF reporter robust z-score": -0.92}
{"gene": "AS3MT", "TNF reporter robust z-score": -0.54}
